The text below walks through data of PMC3196588.

Sequences of proteins named here, by UniProt entry; tags and fusion partners are left off.
UniProt P17931: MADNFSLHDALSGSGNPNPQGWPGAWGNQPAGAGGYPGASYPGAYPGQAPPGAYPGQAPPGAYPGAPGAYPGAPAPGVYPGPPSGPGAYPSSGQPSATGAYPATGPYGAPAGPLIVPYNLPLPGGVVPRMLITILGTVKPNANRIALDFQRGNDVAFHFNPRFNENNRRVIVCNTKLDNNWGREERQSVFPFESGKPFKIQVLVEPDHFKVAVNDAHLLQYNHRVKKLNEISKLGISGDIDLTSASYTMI

Results are given in words; binding and its absence hold for the method and conditions named. Some binding calls cover weakened binding; strength is not graded here.

The test deals with galectin-3 (UniProt P17931). The experiment in a line: affinity chromatography; galectin-1 unbound fraction of a serum applied to immobilized galectin-3; bound proteins identified by SDS-PAGE, MALDI-TOF MS and western blot; only the target purified.

B1: α-2-macroglobulin (protein, UniProt P01023 24-1474)
chain: SVSGKPQYMVLVPSLLHTETTEKGCVLLSYLNETVTVSASLESVRGNRSLFTDLEAENDVLHCVAFAVPKSSSNEEVMFLTVQVKGPTQEFKKRTTVMVKNEDSLVFVQTDKSIYKPGQTVKFRVVSMDENFHPLNELIPLVYIQDPKGNRIAQWQSFQLEGGLKQFSFPLSSEPFQGSYKVVVQKKSGGRTEHPFTVEEFVLPKFEVQVTVPKIITILEEEMNVSVCGLYTYGKPVPGHVTVSICRKYSDASDCHGEDSQAFCEKFSGQLNSHGCFYQQVKTKVFQLKRKEYEMKLHTEAQIQEEGTVVELTGRQSSEITRTITKLSFVKVDSHFRQGIPFFGQVRLVDGKGVPIPNKVIFIRGNEANYYSNATTDEHGLVQFSINTTNVMGTSLTVRVNYKDRSPCYGYQWVSEEHEEAHHTAYLVFSPSKSFVHLEPMSHELPCGHTQTVQAHYILNGGTLLGLKKLSFYYLIMAKGGIVRTGTHGLLVKQEDMKGHFSISIPVKSDIAPVARLLIYAVLPTGDVIGDSAKYDVENCLANKVDLSFSPSQSLPASHAHLRVTAAPQSVCALRAVDQSVLLMKPDAELSASSVYNLLPEKDLTGFPGPLNDQDNEDCINRHNVYINGITYTPVSSTNEKDMYSFLEDMGLKAFTNSKIRKPKMCPQLQQYEMHGPEGLRVGFYESDVMGRGHARLVHVEEPHTETVRKYFPETWIWDLVVVNSAGVAEVGVTVPDTITEWKAGAFCLSEDAGLGISSTASLRAFQPFFVELTMPYSVIRGEAFTLKATVLNYLPKCIRVSVQLEASPAFLAVPVEKEQAPHCICANGRQTVSWAVTPKSLGNVNFTVSAEALESQELCGTEVPSVPEHGRKDTVIKPLLVEPEGLEKETTFNSLLCPSGGEVSEELSLKLPPNVVEESARASVSVLGDILGSAMQNTQNLLQMPYGCGEQNMVLFAPNIYVLDYLNETQQLTPEIKSKAIGYLNTGYQRQLNYKHYDGSYSTFGERYGRNQGNTWLTAFVLKTFAQARAYIFIDEAHITQALIWLSQRQKDNGCFRSSGSLLNNAIKGGVEDEVTLSAYITIALLEIPLTVTHPVVRNALFCLESAWKTAQEGDHGSHVYTKALLAYAFALAGNQDKRKEVLKSLNEEAVKKDNSVHWERPQKPKAPVGHFYEPQAPSAEVEMTSYVLLAYLTAQPAPTSEDLTSATNIVKWITKQQNAQGGFSSTQDTVVALHALSKYGAATFTRTGKAAQVTIQSSGTFSSKFQVDNNNRLLLQQVSLPELPGEYSMKVTGEGCVYLQTSLKYNILPEKEEFPFALGVQTLPQTCDEPKAHTSFQISLSVSYTGSRSASNMAIVDVKMVSGFIPLKPTVKMLERSNHVSRTEVSSNHVLIYLDKVSNQTLSLFFTVLQDVPVRDLKPAIVKVYDYYETDEFAIAEYNAPCSKDLGNA
modifications: N-glycans (8 per subunit)
For B1, the binding entry was “binds”.
